Test results published in article doi:10.1101/2021.02.20.432055.
These are yes or no findings as the source states them, for the method shown. Binding seen in cells or lysates may run through a third protein. These calls come from enrichment with a bait or labelling near it, and not all partners need be listed. Where a sequence is shown, tags or fusion partners need not be part of it.

Protein sequences, listed by entry. Tags and fused reporters are not part of them.
UniProt Q92833: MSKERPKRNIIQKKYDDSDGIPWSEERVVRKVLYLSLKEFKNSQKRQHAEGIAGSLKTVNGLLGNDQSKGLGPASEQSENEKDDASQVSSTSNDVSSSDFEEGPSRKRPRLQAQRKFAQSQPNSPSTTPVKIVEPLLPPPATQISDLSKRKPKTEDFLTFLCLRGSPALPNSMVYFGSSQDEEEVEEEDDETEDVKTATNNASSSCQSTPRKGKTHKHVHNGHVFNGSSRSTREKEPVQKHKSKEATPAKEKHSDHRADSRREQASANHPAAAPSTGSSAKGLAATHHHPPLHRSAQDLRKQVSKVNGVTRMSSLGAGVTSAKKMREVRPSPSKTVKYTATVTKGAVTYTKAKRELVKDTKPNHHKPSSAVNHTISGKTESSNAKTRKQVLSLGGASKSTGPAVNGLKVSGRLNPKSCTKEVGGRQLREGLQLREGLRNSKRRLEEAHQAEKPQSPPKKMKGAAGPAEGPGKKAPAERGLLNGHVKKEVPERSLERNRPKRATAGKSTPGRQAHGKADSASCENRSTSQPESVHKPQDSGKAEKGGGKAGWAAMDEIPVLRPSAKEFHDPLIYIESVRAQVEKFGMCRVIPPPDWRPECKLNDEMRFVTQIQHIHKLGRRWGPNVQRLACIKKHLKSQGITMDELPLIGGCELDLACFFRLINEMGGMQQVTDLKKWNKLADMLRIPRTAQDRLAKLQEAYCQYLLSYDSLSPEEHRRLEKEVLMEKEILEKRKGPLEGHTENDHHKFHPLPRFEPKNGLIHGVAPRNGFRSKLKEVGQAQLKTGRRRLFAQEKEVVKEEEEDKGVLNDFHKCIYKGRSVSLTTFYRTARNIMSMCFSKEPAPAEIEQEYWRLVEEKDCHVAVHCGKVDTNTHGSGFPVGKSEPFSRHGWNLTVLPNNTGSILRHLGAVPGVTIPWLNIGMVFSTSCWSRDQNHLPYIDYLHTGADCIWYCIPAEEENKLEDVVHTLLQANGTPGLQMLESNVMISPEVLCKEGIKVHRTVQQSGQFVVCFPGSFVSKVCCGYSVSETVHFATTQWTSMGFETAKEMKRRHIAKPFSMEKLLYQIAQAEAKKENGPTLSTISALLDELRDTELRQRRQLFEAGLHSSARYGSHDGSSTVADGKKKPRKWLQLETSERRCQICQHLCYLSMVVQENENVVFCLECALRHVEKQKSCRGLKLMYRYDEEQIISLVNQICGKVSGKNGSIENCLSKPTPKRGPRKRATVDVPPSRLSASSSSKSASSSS
UniProt Q9UQE7: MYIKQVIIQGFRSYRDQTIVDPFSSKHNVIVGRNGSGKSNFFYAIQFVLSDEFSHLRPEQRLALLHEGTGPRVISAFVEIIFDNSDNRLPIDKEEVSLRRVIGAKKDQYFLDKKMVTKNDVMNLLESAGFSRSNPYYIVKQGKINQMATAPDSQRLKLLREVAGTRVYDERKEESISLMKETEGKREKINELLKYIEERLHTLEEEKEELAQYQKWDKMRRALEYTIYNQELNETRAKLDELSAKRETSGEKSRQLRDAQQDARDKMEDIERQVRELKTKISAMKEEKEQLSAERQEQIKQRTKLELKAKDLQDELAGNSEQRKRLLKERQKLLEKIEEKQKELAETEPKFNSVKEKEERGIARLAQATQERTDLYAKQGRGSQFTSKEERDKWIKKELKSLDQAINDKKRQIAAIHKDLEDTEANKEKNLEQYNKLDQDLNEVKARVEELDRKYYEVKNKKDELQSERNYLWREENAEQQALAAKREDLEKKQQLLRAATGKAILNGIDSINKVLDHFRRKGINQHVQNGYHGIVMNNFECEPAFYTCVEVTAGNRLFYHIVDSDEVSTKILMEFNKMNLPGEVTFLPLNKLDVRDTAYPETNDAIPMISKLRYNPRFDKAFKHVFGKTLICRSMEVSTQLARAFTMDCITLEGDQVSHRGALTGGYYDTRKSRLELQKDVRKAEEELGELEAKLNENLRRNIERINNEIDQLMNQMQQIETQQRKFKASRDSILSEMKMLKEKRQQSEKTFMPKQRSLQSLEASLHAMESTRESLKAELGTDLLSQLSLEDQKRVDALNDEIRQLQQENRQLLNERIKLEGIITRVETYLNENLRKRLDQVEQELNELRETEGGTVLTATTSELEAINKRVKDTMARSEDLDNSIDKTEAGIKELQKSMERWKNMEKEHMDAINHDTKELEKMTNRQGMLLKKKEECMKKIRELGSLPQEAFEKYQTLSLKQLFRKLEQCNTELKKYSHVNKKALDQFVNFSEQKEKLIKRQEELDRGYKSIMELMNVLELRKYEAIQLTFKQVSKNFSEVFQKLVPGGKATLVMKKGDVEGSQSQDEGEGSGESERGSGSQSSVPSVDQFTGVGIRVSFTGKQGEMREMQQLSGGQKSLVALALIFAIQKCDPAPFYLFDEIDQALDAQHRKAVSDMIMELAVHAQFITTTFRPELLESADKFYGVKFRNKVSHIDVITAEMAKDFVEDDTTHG
UniProt P18583: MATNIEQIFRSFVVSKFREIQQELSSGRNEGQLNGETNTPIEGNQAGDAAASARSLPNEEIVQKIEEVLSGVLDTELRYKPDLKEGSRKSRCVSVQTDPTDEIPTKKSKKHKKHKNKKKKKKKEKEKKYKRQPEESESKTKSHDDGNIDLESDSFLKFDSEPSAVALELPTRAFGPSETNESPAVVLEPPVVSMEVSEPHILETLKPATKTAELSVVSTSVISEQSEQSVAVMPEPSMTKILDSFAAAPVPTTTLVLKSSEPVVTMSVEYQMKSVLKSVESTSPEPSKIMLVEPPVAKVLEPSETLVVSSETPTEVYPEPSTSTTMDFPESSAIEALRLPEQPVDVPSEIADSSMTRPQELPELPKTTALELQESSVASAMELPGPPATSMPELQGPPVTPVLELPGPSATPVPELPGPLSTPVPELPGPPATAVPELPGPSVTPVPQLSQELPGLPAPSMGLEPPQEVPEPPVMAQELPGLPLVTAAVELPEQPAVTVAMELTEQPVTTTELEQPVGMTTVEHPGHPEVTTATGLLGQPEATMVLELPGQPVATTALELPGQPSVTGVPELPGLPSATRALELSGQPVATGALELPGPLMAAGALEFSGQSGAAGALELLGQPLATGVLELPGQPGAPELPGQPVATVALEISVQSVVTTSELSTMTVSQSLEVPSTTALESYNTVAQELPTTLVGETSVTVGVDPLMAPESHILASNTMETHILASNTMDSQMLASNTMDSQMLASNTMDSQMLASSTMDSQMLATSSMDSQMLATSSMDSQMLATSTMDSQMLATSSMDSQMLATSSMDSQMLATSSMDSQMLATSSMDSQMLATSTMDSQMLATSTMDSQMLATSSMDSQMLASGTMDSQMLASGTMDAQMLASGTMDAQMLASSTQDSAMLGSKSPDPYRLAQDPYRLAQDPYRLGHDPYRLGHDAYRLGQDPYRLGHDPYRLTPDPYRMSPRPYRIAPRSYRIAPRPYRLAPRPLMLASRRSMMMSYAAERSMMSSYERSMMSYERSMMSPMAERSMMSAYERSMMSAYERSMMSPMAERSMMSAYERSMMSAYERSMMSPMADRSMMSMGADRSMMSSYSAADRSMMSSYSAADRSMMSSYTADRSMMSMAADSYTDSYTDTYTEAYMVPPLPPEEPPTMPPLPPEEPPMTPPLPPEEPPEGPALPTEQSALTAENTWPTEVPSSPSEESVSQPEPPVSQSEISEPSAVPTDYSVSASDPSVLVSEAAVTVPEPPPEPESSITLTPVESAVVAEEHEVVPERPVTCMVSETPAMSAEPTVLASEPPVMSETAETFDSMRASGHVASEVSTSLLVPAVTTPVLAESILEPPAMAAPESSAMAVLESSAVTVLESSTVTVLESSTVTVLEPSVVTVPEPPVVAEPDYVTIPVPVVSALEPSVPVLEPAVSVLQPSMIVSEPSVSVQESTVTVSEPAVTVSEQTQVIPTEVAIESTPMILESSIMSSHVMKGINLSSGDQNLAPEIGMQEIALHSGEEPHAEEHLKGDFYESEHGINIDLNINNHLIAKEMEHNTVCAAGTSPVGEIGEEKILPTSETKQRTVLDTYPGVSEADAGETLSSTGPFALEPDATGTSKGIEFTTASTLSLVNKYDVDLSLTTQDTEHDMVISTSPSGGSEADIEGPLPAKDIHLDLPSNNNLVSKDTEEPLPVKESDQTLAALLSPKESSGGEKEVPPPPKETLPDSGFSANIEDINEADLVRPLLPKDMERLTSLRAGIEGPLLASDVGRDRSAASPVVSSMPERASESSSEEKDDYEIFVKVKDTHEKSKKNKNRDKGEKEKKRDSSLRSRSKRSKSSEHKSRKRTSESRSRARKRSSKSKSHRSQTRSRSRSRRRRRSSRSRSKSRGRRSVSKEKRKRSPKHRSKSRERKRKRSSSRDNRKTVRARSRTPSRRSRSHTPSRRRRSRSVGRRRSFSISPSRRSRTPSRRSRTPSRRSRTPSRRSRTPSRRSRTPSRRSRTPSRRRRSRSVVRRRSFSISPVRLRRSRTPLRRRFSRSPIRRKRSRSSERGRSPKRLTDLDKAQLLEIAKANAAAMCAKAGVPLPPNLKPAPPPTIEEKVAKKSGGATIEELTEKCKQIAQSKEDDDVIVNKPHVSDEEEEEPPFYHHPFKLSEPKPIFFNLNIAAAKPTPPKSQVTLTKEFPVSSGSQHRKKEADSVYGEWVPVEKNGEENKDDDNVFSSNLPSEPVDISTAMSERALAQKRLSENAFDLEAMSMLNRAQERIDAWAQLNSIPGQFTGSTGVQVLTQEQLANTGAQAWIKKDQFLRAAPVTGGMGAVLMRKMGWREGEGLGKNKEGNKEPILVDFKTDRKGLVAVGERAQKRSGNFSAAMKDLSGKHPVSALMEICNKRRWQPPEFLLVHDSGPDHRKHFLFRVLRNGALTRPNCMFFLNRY
UniProt Q07955: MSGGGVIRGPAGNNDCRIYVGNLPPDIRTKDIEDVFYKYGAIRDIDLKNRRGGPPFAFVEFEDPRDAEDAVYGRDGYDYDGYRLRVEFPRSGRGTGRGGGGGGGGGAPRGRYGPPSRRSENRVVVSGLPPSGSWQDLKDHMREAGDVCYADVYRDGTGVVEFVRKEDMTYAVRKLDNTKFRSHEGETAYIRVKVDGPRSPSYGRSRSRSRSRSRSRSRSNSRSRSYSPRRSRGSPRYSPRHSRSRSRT
UniProt O60506: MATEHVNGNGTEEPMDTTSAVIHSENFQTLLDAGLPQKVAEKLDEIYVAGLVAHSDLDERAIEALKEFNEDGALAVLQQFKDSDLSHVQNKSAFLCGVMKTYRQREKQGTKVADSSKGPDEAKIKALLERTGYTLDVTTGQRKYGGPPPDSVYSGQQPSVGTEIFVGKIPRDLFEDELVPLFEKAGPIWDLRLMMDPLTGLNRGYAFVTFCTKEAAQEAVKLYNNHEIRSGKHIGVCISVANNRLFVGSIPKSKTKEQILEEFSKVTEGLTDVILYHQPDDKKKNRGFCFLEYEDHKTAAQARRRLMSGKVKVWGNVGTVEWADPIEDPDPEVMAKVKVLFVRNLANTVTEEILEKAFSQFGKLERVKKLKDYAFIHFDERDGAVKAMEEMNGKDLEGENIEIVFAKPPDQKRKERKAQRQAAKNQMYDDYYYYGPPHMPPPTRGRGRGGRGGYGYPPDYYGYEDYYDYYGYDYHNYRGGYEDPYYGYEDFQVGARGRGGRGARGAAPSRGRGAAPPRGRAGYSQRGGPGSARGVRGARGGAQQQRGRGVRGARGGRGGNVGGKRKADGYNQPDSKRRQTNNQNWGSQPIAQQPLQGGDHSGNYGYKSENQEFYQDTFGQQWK

T1: SA1 (Stromalin Antigen 1, STAG1) (human (endogenous in HCT116)) (UniProt Q8WVM7)
T1 sequence: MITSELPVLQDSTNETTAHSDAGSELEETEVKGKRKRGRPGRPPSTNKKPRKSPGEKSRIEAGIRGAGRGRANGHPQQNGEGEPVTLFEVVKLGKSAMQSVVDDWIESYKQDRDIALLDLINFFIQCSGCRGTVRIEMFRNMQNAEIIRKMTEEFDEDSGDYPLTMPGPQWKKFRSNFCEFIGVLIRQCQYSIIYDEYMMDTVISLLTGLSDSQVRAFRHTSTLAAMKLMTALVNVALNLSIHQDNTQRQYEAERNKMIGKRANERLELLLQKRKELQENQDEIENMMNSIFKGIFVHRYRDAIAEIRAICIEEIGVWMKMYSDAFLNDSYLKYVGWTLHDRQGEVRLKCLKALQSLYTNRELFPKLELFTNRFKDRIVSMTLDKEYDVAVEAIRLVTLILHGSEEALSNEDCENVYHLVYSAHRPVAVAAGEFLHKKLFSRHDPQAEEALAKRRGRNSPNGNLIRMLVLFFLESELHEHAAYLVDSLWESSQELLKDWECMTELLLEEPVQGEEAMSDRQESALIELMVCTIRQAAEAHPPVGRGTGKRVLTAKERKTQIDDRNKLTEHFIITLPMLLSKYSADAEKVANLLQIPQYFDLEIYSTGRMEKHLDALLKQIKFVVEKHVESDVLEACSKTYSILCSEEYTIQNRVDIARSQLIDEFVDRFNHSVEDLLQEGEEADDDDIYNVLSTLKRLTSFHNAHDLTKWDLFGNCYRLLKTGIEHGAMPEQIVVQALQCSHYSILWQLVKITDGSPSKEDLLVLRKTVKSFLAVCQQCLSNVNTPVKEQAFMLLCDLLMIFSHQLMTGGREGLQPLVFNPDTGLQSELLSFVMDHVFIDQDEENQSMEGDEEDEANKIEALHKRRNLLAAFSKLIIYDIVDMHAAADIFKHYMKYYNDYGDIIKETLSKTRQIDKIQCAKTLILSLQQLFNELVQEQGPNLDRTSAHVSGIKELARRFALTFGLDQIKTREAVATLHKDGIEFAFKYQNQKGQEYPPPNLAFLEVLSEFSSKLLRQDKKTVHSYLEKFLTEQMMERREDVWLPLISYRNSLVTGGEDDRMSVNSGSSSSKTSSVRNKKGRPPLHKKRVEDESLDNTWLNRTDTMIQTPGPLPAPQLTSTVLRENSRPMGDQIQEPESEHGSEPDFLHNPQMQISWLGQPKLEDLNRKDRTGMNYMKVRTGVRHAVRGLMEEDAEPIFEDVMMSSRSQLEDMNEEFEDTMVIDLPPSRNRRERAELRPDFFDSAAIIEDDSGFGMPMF


Target: T1, SA1 (Stromalin Antigen 1, STAG1) (human (endogenous in HCT116))
Test: affinity purification with mass spectrometry

Molecule | binding
GCN1L1 (from UniProt Q92616 1-2671) | binds
JARID2 (from UniProt Q92833 1-1246) | binds
SMC3 (from UniProt Q9UQE7 1-1217) | binds
SON (from UniProt P18583 1-2426) | binds
SRSF1 (from UniProt Q07955 1-248) | binds
SYNCRIP (from UniProt O60506 1-623) | binds
SMC1A (protein, UniProt Q14683 1-1233) MGFLKLIEIENFKSYKGRQIIGPFQRFTAIIGPNGSGKSNLMDAISFVLGEKTSNLRVKTLRDLIHGAPVGKPAANRAFVSMVYSEEGAEDRTFARVIVGGSSEYKINNKVVQLHEYSEELEKLGILIKARNFLVFQGAVESIAMKNPKERTALFEEISRSGELAQEYDKRKKEMVKAEEDTQFNYHRKKNIAAERKEAKQEKEEADRYQRLKDEVVRAQVQLQLFKLYHNEVEIEKLNKELASKNKEIEKDKKRMDKVEDELKEKKKELGKMMREQQQIEKEIKEKDSELNQKRPQYIKAKENTSHKIKKLEAAKKSLQNAQKHYKKRKGDMDELEKEMLSVEKARQEFEERMEEESQSQGRDLTLEENQVKKYHRLKEEASKRAATLAQELEKFNRDQKADQDRLDLEERKKVETEAKIKQKLREIEENQKRIEKLEEYITTSKQSLEEQKKLEGELTEEVEMAKRRIDEINKELNQVMEQLGDARIDRQESSRQQRKAEIMESIKRLYPGSVYGRLIDLCQPTQKKYQIAVTKVLGKNMDAIIVDSEKTGRDCIQYIKEQRGEPETFLPLDYLEVKPTDEKLRELKGAKLVIDVIRYEPPHIKKALQYACGNALVCDNVEDARRIAFGGHQRHKTVALDGTLFQKSGVISGGASDLKAKARRWDEKAVDKLKEKKERLTEELKEQMKAKRKEAELRQVQSQAHGLQMRLKYSQSDLEQTKTRHLALNLQEKSKLESELANFGPRINDIKRIIQSREREMKDLKEKMNQVEDEVFEEFCREIGVRNIREFEEEKVKRQNEIAKKRLEFENQKTRLGIQLDFEKNQLKEDQDKVHMWEQTVKKDENEIEKLKKEEQRHMKIIDETMAQLQDLKNQHLAKKSEVNDKNHEMEEIRKKLGGANKEMTHLQKEVTAIETKLEQKRSDRHNLLQACKMQDIKLPLSKGTMDDISQEEGSSQGEDSVSGSQRISSIYAREALIEIDYGDLCEDLKDAQAEEEIKQEMNTLQQKLNEQQSVLQRIAAPNMKAMEKLESVRDKFQETSDEFEAARKRAKKAKQAFEQIKKERFDRFNACFESVATNIDEIYKALSRNSSAQAFLGPENPEEPYLDGINYNCVAPGKRFRPMDNLSGGEKTVAALALLFAIHSYKPAPFFVLDEIDAALDNTNIGKVANYIKEQSTCNFQAIVISLKEEFYTKAESLIGVYPEQGDCVISKVLTFDLTKYPDANPNPNEQ | binds
PDS5B (protein, UniProt Q9NTI5 1-1447) MAHSKTRTNDGKITYPPGVKEISDKISKEEMVRRLKMVVKTFMDMDQDSEEEKELYLNLALHLASDFFLKHPDKDVRLLVACCLADIFRIYAPEAPYTSPDKLKDIFMFITRQLKGLEDTKSPQFNRYFYLLENIAWVKSYNICFELEDSNEIFTQLYRTLFSVINNGHNQKVHMHMVDLMSSIICEGDTVSQELLDTVLVNLVPAHKNLNKQAYDLAKALLKRTAQAIEPYITNFFNQVLMLGKTSISDLSEHVFDLILELYNIDSHLLLSVLPQLEFKLKSNDNEERLQVVKLLAKMFGAKDSELASQNKPLWQCYLGRFNDIHVPIRLECVKFASHCLMNHPDLAKDLTEYLKVRSHDPEEAIRHDVIVSIVTAAKKDILLVNDHLLNFVRERTLDKRWRVRKEAMMGLAQIYKKYALQSAAGKDAAKQIAWIKDKLLHIYYQNSIDDRLLVERIFAQYMVPHNLETTERMKCLYYLYATLDLNAVKALNEMWKCQNLLRHQVKDLLDLIKQPKTDASVKAIFSKVMVITRNLPDPGKAQDFMKKFTQVLEDDEKIRKQLEVLVSPTCSCKQAEGCVREITKKLGNPKQPTNPFLEMIKFLLERIAPVHIDTESISALIKQVNKSIDGTADDEDEGVPTDQAIRAGLELLKVLSFTHPISFHSAETFESLLACLKMDDEKVAEAALQIFKNTGSKIEEDFPHIRSALLPVLHHKSKKGPPRQAKYAIHCIHAIFSSKETQFAQIFEPLHKSLDPSNLEHLITPLVTIGHIALLAPDQFAAPLKSLVATFIVKDLLMNDRLPGKKTTKLWVPDEEVSPETMVKIQAIKMMVRWLLGMKNNHSKSGTSTLRLLTTILHSDGDLTEQGKISKPDMSRLRLAAGSAIVKLAQEPCYHEIITLEQYQLCALAINDECYQVRQVFAQKLHKGLSRLRLPLEYMAICALCAKDPVKERRAHARQCLVKNINVRREYLKQHAAVSEKLLSLLPEYVVPYTIHLLAHDPDYVKVQDIEQLKDVKECLWFVLEILMAKNENNSHAFIRKMVENIKQTKDAQGPDDAKMNEKLYTVCDVAMNIIMSKSTTYSLESPKDPVLPARFFTQPDKNFSNTKNYLPPEMKSFFTPGKPKTTNVLGAVNKPLSSAGKQSQTKSSRMETVSNASSSSNPSSPGRIKGRLDSSEMDHSENEDYTMSSPLPGKKSDKRDDSDLVRSELEKPRGRKKTPVTEQEEKLGMDDLTKLVQEQKPKGSQRSRKRGHTASESDEQQWPEEKRLKEDILENEDEQNSPPKKGKRGRPPKPLGGGTPKEEPTMKTSKKGSKKKSGPPAPEEEEEEERQSGNTEQKSKSKQHRVSRRAQQRAESPESSAIESTQSTPQKGRGRPSKTPSPSQPKKNVRVGRSKQAATKENDSSEEVDVFQGSSPVDDIPQEETEEEEVSTVNVRRRSAKRERR | binds
SMARCAL1 (protein, UniProt Q9NZC9 1-954) MSLPLTEEQRKKIEENRQKALARRAEKLLAEQHQRTSSGTSIAGNPFQAKQGPSQNFPRESCKPVSHGVIFKQQNLSSSSNADQRPHDSHSFQAKGIWKKPEEMPTACPGHSPRSQMALTGISPPLAQSPPEVPKQQLLSYELGQGHAQASPEIRFTPFANPTHKPLAKPKSSQETPAHSSGQPPRDAKLEAKTAKASPSGQNISYIHSSSESVTPRTEGRLQQKSGSSVQKGVNSQKGKCVRNGDRFQVLIGYNAELIAVFKTLPSKNYDPDTKTWNFSMNDYSALMKAAQSLPTVNLQPLEWAYGSSESPSTSSEGQAGLPSAPSLSFVKGRCMLISRAYFEADISYSQDLIALFKQMDSRRYDVKTRKWSFLLEEHSKLIAKVRCLPQVQLDPLPTTLTLAFASQLKKTSLSLTPDVPEADLSEVDPKLVSNLMPFQRAGVNFAIAKGGRLLLADDMGLGKTIQAICIAAFYRKEWPLLVVVPSSVRFTWEQAFLRWLPSLSPDCINVVVTGKDRLTAGLINIVSFDLLSKLEKQLKTPFKVVIIDESHFLKNSRTARCRAAMPVLKVAKRVILLSGTPAMSRPAELYTQIIAVKPTFFPQFHAFGLRYCDAKRMPWGWDYSGSSNLGELKLLLEEAVMLRRLKSDVLSQLPAKQRKIVVIAPGRINARTRAALDAAAKEMTTKDKTKQQQKDALILFFNRTAEAKIPSVIEYILDLLESGREKFLVFAHHKVVLDAITQELERKHVQHIRIDGSTSSAEREDLCQQFQLSERHAVAVLSITAANMGLTFSSADLVVFAELFWNPGVLIQAEDRVHRIGQTSSVGIHYLVAKGTADDYLWPLIQEKIKVLAEAGLSETNFSEMTESTDYLYKDPKQQKIYDLFQKSFEKEGSDMELLEAAESFDPGSASGTSGSSSQNMGDTLDESSLTASPQKKRRFEFFDNWDSFTSPL | binds
